Values quoted from earlier work in patent US12251379B2, “Methods of inhibiting formation of alpha synuclein aggregates” (THE REGENTS OF THE UNIVERSITY OF CALIFORNIA, priority 2018, dated 2025).
At least one compound was matched to its structure with a doubt left.

Assays:
[1] = test system: PDE4; details: live HEK cells, PKA biosensor; relative to Rolipram at 1 μM; cited from earlier work
[2] = cited from earlier work

CCC(=O)N1CCC(NC(=O)Nc2ccc(OC(F)(F)F)cc2)CC1 [TPPU, 1-trifluoromethoxyphenyl-3-(1-propionylpiperidin-4-yl) urea]
cAMP increase (% of Rolipram) [1]: 40 ± 10 % of Rolipram

CCCCCCCCCCCCNC(=O)NC12CC3CC(CC(C3)C1)C2 [ADU, N-Adamantyl-N′-dodecyl urea]
metabolic stability [2]: metabolically stable
